Measurements published in patent US10351706B2, “Near-infrared fluorescent dyes and uses thereof” (East China University of Science and Technology, priority 2015, dated 2019).
At least one structure is not confirmed: it was looked up by name or label, or the drawing left a doubt.

How the values were obtained:
[1] = UV-visible absorption spectral test (Shimadzu UV2600 UV-visible spectrometer); format: physicochemical
From the text: (§1) The following data are the spectral test data of compound 3d in different solvents (UV-visible data are taken from Shimadzu UV2600 UV-visible spectrometer and fluorescence data are taken from PTI QM4 fluorescence spectrometer):
(§2) The following data are the spectral test data of different dyes in chloroform solution: […]

[2] = Fluorescence spectral test (PTI QM4 fluorescence spectrometer); format: physicochemical; conditions: different dyes in chloroform solution
From the text: as §1, §2

[3] = different dyes in chloroform solution
[4] = solvent Chloroform (solvent table of compound 3d)

Q: For `CCN1CCCc2cc3cc4c(cc3cc21)C1(c2ccccc2Oc2ccccc21)c1cc2cc3c(cc2cc1=C4c1ccccc1)CCC[N+]=3CC` [Compound 2a], which Extinction coefficient [1, 3] is on record?
A: 164000 cm^−1M^−1

Q: And the Maximum absorption wavelength [1, 3]?
A: 847 nm

Q: What about the Maximum emission wavelength [2] of the same compound?
A: 873 nm

Q: Which Extinction coefficient [1, 3] does the source give for `COc1ccccc1C1=c2cc3cc4c5c(c3cc2C2(c3ccccc3Oc3ccccc32)c2cc3c6c7c(cc3cc21)CCCN7CCC6)CCC[N+]=5CCC4` [Compound 3d] here?
A: 162000 cm^−1M^−1

Q: And the Maximum absorption wavelength [1, 3]?
A: 879 nm

Q: What about the Extinction coefficient ([1]; solvent 1,4-dioxane) of the same compound?
A: 32200 cm^−1M^−1

Q: And the Maximum absorption wavelength ([1]; solvent 1,4-dioxane)?
A: 853 nm

Q: What about the Extinction coefficient ([1]; solvent AcOH) of the same compound?
A: 151200 cm^−1M^−1

Q: What about the Maximum absorption wavelength ([1]; solvent AcOH) of the same compound?
A: 875 nm

Q: And the Extinction coefficient ([1]; solvent Acetone)?
A: 124800 cm^−1M^−1

Q: What about the Maximum absorption wavelength ([1]; solvent Acetone) of the same compound?
A: 874 nm

Q: What about the Extinction coefficient ([1]; solvent Benzene) of the same compound?
A: 33400 cm^−1M^−1

Q: And the Maximum absorption wavelength ([1]; solvent Benzene)?
A: 861 nm

Q: And the Extinction coefficient ([1]; solvent BuOH)?
A: 112200 cm^−1M^−1

Q: And the Maximum absorption wavelength ([1]; solvent BuOH)?
A: 877 nm

Q: What about the Extinction coefficient ([1]; solvent Chlorobenzene) of the same compound?
A: 131800 cm^−1M^−1

Q: And the Maximum absorption wavelength ([1]; solvent Chlorobenzene)?
A: 891 nm

Q: And the Extinction coefficient [1, 4]?
A: 161800 cm^−1M^−1

Q: What about the Maximum absorption wavelength [1, 4] of the same compound?
A: 879 nm

Q: And the Extinction coefficient ([1]; solvent DCM)?
A: 131200 cm^−1M^−1

Q: What about the Maximum absorption wavelength ([1]; solvent DCM) of the same compound?
A: 880 nm

Q: What about the Extinction coefficient ([1]; solvent DMF) of the same compound?
A: 75800 cm^−1M^−1

Q: What about the Maximum absorption wavelength ([1]; solvent DMF) of the same compound?
A: 884 nm

Q: What about the Extinction coefficient ([1]; solvent DMSO) of the same compound?
A: 111800 cm^−1M^−1

Q: What about the Maximum absorption wavelength ([1]; solvent DMSO) of the same compound?
A: 890 nm

Q: And the Extinction coefficient ([1]; solvent Dichloroethane)?
A: 163200 cm^−1M^−1

Q: What about the Maximum absorption wavelength ([1]; solvent Dichloroethane) of the same compound?
A: 881 nm

Q: What about the Extinction coefficient ([1]; solvent EtOH) of the same compound?
A: 128200 cm^−1M^−1

Q: And the Maximum absorption wavelength ([1]; solvent EtOH)?
A: 873 nm

Q: What about the Extinction coefficient ([1]; solvent Ethyl acetate) of the same compound?
A: 65000 cm^−1M^−1

Q: What about the Maximum absorption wavelength ([1]; solvent Ethyl acetate) of the same compound?
A: 876 nm

Q: And the Extinction coefficient ([1]; solvent H2O)?
A: 49200 cm^−1M^−1

Q: What about the Maximum absorption wavelength ([1]; solvent H2O) of the same compound?
A: 787 nm

Q: What about the Extinction coefficient ([1]; solvent MeCN) of the same compound?
A: 134600 cm^−1M^−1

Q: And the Maximum absorption wavelength ([1]; solvent MeCN)?
A: 873 nm

Q: And the Extinction coefficient ([1]; solvent MeOH)?
A: 139200 cm^−1M^−1

Q: And the Maximum absorption wavelength ([1]; solvent MeOH)?
A: 871 nm

Q: What about the Extinction coefficient ([1]; solvent Nitrobenzene) of the same compound?
A: 125400 cm^−1M^−1

Q: What about the Maximum absorption wavelength ([1]; solvent Nitrobenzene) of the same compound?
A: 891 nm

Q: What about the Extinction coefficient ([1]; solvent P-xylene) of the same compound?
A: 9000 cm^−1M^−1

Q: What about the Maximum absorption wavelength ([1]; solvent P-xylene) of the same compound?
A: 861 nm

Q: And the Extinction coefficient ([1]; solvent PrOH)?
A: 127000 cm^−1M^−1

Q: And the Maximum absorption wavelength ([1]; solvent PrOH)?
A: 875 nm

Q: What about the Extinction coefficient ([1]; solvent Pyridine) of the same compound?
A: 122200 cm^−1M^−1

Q: And the Maximum absorption wavelength ([1]; solvent Pyridine)?
A: 892 nm

Q: What about the Extinction coefficient ([1]; solvent THF) of the same compound?
A: 103000 cm^−1M^−1

Q: What about the Maximum absorption wavelength ([1]; solvent THF) of the same compound?
A: 881 nm

Q: And the Extinction coefficient ([1]; solvent Toluene)?
A: 32200 cm^−1M^−1

Q: And the Maximum absorption wavelength ([1]; solvent Toluene)?
A: 861 nm

Q: And the Extinction coefficient ([1]; solvent iPrOH)?
A: 119200 cm^−1M^−1

Q: What about the Maximum absorption wavelength ([1]; solvent iPrOH) of the same compound?
A: 875 nm
